# From article doi:10.1101/2024.01.16.575949
# Amino acid sequences for entries named in this document (tags omitted).
# UniProt P61244: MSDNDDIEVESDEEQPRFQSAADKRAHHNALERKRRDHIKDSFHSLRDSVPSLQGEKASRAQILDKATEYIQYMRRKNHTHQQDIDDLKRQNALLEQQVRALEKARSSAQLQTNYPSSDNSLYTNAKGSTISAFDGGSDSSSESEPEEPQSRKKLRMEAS
# UniProt Q07955: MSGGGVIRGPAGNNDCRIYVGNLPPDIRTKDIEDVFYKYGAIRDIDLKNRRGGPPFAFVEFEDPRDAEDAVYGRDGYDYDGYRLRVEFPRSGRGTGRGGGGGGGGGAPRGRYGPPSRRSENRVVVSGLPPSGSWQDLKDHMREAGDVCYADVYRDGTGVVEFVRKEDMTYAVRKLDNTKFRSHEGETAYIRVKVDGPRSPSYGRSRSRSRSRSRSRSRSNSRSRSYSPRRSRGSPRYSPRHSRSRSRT
# These are yes or no findings as the source states them, for the method shown. Binding seen in cells or lysates may run through a third protein. Here binding means that the protein was enriched with, or labelled near, the bait; the list need not be complete.
# T1: Halo-SIN3A (UniProt Q96ST3)
# T1 sequence: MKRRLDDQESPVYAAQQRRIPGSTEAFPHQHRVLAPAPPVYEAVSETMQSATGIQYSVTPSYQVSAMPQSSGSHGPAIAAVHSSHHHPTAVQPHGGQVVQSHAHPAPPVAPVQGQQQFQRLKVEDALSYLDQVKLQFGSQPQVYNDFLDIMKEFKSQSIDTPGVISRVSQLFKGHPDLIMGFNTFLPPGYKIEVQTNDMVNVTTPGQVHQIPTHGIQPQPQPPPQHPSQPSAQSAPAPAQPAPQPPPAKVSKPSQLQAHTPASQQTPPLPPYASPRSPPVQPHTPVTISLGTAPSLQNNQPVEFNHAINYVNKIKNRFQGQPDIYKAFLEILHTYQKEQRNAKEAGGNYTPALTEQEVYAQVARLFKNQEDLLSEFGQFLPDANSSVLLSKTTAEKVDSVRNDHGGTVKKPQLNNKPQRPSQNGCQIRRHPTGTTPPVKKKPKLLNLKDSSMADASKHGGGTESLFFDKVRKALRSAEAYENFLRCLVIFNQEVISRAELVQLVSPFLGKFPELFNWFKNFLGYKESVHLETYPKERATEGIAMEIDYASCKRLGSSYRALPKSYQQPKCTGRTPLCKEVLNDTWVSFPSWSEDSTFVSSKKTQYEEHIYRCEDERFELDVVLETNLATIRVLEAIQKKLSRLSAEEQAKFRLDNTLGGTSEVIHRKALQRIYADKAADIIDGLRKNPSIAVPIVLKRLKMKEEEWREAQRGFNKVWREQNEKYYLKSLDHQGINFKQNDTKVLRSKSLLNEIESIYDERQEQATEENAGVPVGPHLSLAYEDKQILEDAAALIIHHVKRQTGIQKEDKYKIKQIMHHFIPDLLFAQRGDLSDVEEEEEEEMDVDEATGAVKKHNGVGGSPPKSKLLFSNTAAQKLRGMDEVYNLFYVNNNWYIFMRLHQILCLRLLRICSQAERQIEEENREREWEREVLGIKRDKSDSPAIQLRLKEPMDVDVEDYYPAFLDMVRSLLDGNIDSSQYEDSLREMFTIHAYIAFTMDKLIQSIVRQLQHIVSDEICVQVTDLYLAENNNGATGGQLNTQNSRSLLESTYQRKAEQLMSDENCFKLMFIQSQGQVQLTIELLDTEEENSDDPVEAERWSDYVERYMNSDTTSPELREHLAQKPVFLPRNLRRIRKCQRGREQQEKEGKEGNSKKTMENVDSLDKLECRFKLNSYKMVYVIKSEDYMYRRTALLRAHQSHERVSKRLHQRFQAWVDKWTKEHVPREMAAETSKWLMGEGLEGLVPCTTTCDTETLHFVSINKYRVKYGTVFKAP
# T2: Halo-FAM60A (full length) (UniProt Q9NP50)
# T2 sequence: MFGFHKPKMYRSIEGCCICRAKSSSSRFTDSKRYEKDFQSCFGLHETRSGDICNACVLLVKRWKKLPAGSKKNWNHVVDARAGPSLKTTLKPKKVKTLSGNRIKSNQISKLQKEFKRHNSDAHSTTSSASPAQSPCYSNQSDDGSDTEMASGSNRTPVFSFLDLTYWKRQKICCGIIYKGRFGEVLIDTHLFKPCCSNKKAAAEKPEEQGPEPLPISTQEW
# B1: ARID4A (endogenous) (protein, UniProt P29374 1-1257)
# chain: MKAADEPAYLTVGTDVSAKYRGAFCEAKIKTVKRLVKVKVLLKQDNTTQLVQDDQVKGPLRVGAIVETRTSDGSFQEAIISKLTDASWYTVVFDDGDERTLRRTSLCLKGERHFAESETLDQLPLTNPEHFGTPVIAKKTNRGRRSSLPVTEDEKEEESSEEEDEDKRRLNDELLGKVVSVVSATERTEWYPALVISPSCNDDITVKKDQCLVRSFIDSKFYSIARKDIKEVDILNLPESELSTKPGLQKASIFLKTRVVPDNWKMDISEILESSSSDDEDGPAEENDEEKEKEAKKTEEEVPEEELDPEERDNFLQQLYKFMEDRGTPINKPPVLGYKDLNLFKLFRLVYHQGGCDNIDSGAVWKQIYMDLGIPILNSAASYNVKTAYRKYLYGFEEYCRSANIQFRTVHHHEPKVKEEKKDLEESMEEALKLDQEMPLTEVKSEPEENIDSNSESEREEIELKSPRGRRRIARDVNSIKKEIEEEKTEDKLKDNDTENKDVDDDYETAEKKENELLLGRKNTPKQKEKKIKKQEDSDKDSDEEEEKSQEREETESKCDSEGEEDEEDMEPCLTGTKVKVKYGRGKTQKIYEASIKSTEIDDGEVLYLVHYYGWNVRYDEWVKADRIIWPLDKGGPKKKQKKKAKNKEDSEKDEKRDEERQKSKRGRPPLKSTLSSNMPYGLSKTANSEGKSDSCSSDSETEDALEKNLINEELSLKDELEKNENLNDDKLDEENPKISAHILKENDRTQMQPLETLKLEVGENEQIVQIFGNKMEKTEEVKKEAEKSPKGKGRRSKTKDLSLEIIKISSFGQNEAGSEPHIEAHSLELSSLDNKNFSSATEDEIDQCVKEKKLKRKILGQSSPEKKIRIENGMEMTNTVSQERTSDCIGSEGMKNLNFEQHFERENEGMPSLIAESNQCIQQLTSERFDSPAEETVNIPLKEDEDAMPLIGPETLVCHEVDLDDLDEKDKTSIEDVAVESSESNSLVSIPPALPPVVQHNFSVASPLTLSQDESRSVKSESDITIEVDSIAEESQEGLCERESANGFETNVASGTCSIIVQERESREKGQKRPSDGNSGLMAKKQKRTPKRTSAAAKNEKNGTGQSSDSEDLPVLDNSSKCTPVKHLNVSKPQKLARSPARISPHIKDGEKDKHREKHPNSSPRTYKWSFQLNELDNMNSTERISFLQEKLQEIRKYYMSLKSEVATIDRRRKRLKKKDREVSHAGASMSSASSDTGMSPSSSSPPQNVLAVECR
# B2: SAP30 (endogenous) (protein, UniProt O75446 1-220)
# chain: MNGFTPDEMSRGGDAAAAVAAVVAAAAAAASAGNGTGAGTGAEVPGAGAVSAAGPPGAAGPGPGQLCCLREDGERCGRAAGNASFSKRIQKSISQKKVKIELDKSARHLYICDYHKNLIQSVRNRRKRKGSDDDGGDSPVQDIDTPEVDLYQLQVNTLRRYKRHFKLPTRPGLNKAQLVEIVGCHFRSIPVNEKDTLTYFIYSVKNDKNKSDLKVDSGVH
# B3: ARID4B (endogenous) (protein, UniProt Q4LE39 1-1312)
# chain: MKALDEPPYLTVGTDVSAKYRGAFCEAKIKTAKRLVKVKVTFRHDSSTVEVQDDHIKGPLKVGAIVEVKNLDGAYQEAVINKLTDASWYTVVFDDGDEKTLRRSSLCLKGERHFAESETLDQLPLTNPEHFGTPVIGKKTNRGRRSNHIPEEESSSSSSDEDEDDRKQIDELLGKVVCVDYISLDKKKALWFPALVVCPDCSDEIAVKKDNILVRSFKDGKFTSVPRKDVHEITSDTAPKPDAVLKQAFEQALEFHKSRTIPANWKTELKEDSSSSEAEEEEEEEDDEKEKEDNSSEEEEEIEPFPEERENFLQQLYKFMEDRGTPINKRPVLGYRNLNLFKLFRLVHKLGGFDNIESGAVWKQVYQDLGIPVLNSAAGYNVKCAYKKYLYGFEEYCRSANIEFQMALPEKVVNKQCKECENVKEIKVKEENETEIKEIKMEEERNIIPREEKPIEDEIERKENIKPSLGSKKNLLESIPTHSDQEKEVNIKKPEDNENLDDKDDDTTRVDESLNIKVEAEEEKAKSGDETNKEEDEDDEEAEEEEEEEEEEEDEDDDDNNEEEEFECYPPGMKVQVRYGRGKNQKMYEASIKDSDVEGGEVLYLVHYCGWNVRYDEWIKADKIVRPADKNVPKIKHRKKIKNKLDKEKDKDEKYSPKNCKLRRLSKPPFQTNPSPEMVSKLDLTDAKNSDTAHIKSIEITSILNGLQASESSAEDSEQEDERGAQDMDNNGKEESKIDHLTNNRNDLISKEEQNSSSLLEENKVHADLVISKPVSKSPERLRKDIEVLSEDTDYEEDEVTKKRKDVKKDTTDKSSKPQIKRGKRRYCNTEECLKTGSPGKKEEKAKNKESLCMENSSNSSSDEDEEETKAKMTPTKKYNGLEEKRKSLRTTGFYSGFSEVAEKRIKLLNNSDERLQNSRAKDRKDVWSSIQGQWPKKTLKELFSDSDTEAAASPPHPAPEEGVAEESLQTVAEEESCSPSVELEKPPPVNVDSKPIEEKTVEVNDRKAEFPSSGSNSVLNTPPTTPESPSSVTVTEGSRQQSSVTVSEPLAPNQEEVRSIKSETDSTIEVDSVAGELQDLQSEGNSSPAGFDASVSSSSSNQPEPEHPEKACTGQKRVKDAQGGGSSSKKQKRSHKATVVNNKKKGKGTNSSDSEELSAGESITKSQPVKSVSTGMKSHSTKSPARTQSPGKCGKNGDKDPDLKEPSNRLPKVYKWSFQMSDLENMTSAERITILQEKLQEIRKHYLSLKSEVASIDRRRKRLKKKERESAATSSSSSSPSSSSITAAVMLTLAEPSMSSASQNGMSVECR
# B4: SAP30L (endogenous) (protein, UniProt Q9HAJ7 1-183)
# chain: MNGFSTEEDSREGPPAAPAAAAPGYGQSCCLIEDGERCVRPAGNASFSKRVQKSISQKKLKLDIDKSVRHLYICDFHKNFIQSVRNKRKRKTSDDGGDSPEHDTDIPEVDLFQLQVNTLRRYKRHYKLQTRPGFNKAQLAETVSRHFRNIPVNEKETLAYFIYMVKSNKSRLDQKSEGGKQLE
# B5: ING2 (endogenous) (protein, UniProt Q9H160 1-280)
# chain: MLGQQQQQLYSSAALLTGERSRLLTCYVQDYLECVESLPHDMQRNVSVLRELDNKYQETLKEIDDVYEKYKKEDDLNQKKRLQQLLQRALINSQELGDEKIQIVTQMLELVENRARQMELHSQCFQDPAESERASDKAKMDSSQPERSSRRPRRQRTSESRDLCHMANGIEDCDDQPPKEKKSKSAKKKKRSKAKQEREASPVEFAIDPNEPTYCLCNQVSYGEMIGCDNEQCPIEWFHFSCVSLTYKPKGKWYCPKCRGDNEKTMDKSTEKTKKDRRSR
# B6: SRSF2 (endogenous) (protein, UniProt Q01130 1-221)
# chain: MSYGRPPPDVEGMTSLKVDNLTYRTSPDTLRRVFEKYGRVGDVYIPRDRYTKESRGFAFVRFHDKRDAEDAMDAMDGAVLDGRELRVQMARYGRPPDSHHSRRGPPPRRYGGGGYGRRSRSPRRRRRSRSRSRSRSRSRSRSRYSRSKSRSRTRSRSRSTSKSRSARRSKSKSSSVSRSRSRSRSRSRSRSPPPVSKRESKSRSRSKSPPKSPEEEGAVSS
# B7: U2AF1 (endogenous) (protein, UniProt Q01081 1-240)
# chain: MAEYLASIFGTEKDKVNCSFYFKIGACRHGDRCSRLHNKPTFSQTIALLNIYRNPQNSSQSADGLRCAVSDVEMQEHYDEFFEEVFTEMEEKYGEVEEMNVCDNLGDHLVGNVYVKFRREEDAEKAVIDLNNRWFNGQPIHAELSPVTDFREACCRQYEMGECTRGGFCNFMHLKPISRELRRELYGRRRKKHRSRSRSRERRSRSRDRGRGGGGGGGGGGGGRERDRRRSRDRERSGRF
# B8: SRSF3 (endogenous) (protein, UniProt P84103 1-164)
# chain: MHRDSCPLDCKVYVGNLGNNGNKTELERAFGYYGPLRSVWVARNPPGFAFVEFEDPRDAADAVRELDGRTLCGCRVRVELSNGEKRSRNRGPPPSWGRRPRDDYRRRSPPPRRRSPRRRSFSRSRSRSLSRDRRRERSLSRERNHKPSRSFSRSRSRSRSNERK
# Biological target: T1, Halo-SIN3A
# Assay: affinity purification with mass spectrometry
row,binding,Molecule
1,binds,MAX (endogenous) (from UniProt P61244 1-160)
2,binds,B1
3,binds,B2
4,binds,B3
5,binds,B4
6,binds,B5

# Biological target: T2, Halo-FAM60A (full length)
# Assay: affinity purification with mass spectrometry
row,binding,Molecule
1,binds,SRSF1 (endogenous) (from UniProt Q07955 1-248)
2,binds,B6
3,binds,B7
4,binds,B8
